US9255088B2, “Premature-termination-codons readthrough compounds” (The Regents of the University of California, priority 2010, dated 2016)
Some results were stated once for a whole list of compounds, not compound by compound. For some assays here: At least one structure is not confirmed: it was looked up by name or label, or the drawing left a doubt.

Experiments:
AT153LA cells (TGA A) = experiment: Colony survival assay (CSA), radiosensitivity of A-T LCLs; assay type: cell-based, human; conditions: 10 and 20 μM; untreated 13.5%
Experimental: Because the radiosensitivity of A-T cells results from the ATM deficiency, we next investigated whether RTC#13 and #14 can abrogate A-T cell's radiosensitivity of A-T cells. AT153LA cells (TGA A) were treated with compounds for 4 d and followed by CSA. One wild-type cell line and one different A-T cell line were used as assay quality controls. […] These were within the normal (>36%) and radiosensitive (<21%) range, respectively (FIG. 7, right two bars). […] The definition of CSA range used was previously established in our laboratory and is used for clinical A-T diagnosis (see Materials and methods).
AT153LA cells (TGA A) were treated with compounds and the CSA was measured. […] In FIG. 7, the symbol (*) denotes results fall within the ranges characterized by Sun et al. J Pediatr, 140(6):724-31, 2002. […] Results were consistent in three independent experiments.
CSA was performed as previously described (Sun et al., 2002, J. Pediatr. 140:724-731). After 4 d of incubation with compounds, LCLs were plated, in duplicate, in 96-well plates at 100 and 200 cells per well. One plate was exposed to 1.0 Gy radiation, whereas the other was left unirradiated. The cells were incubated for 10-13 d and then stained with MTT. The presence of a colony of 32 cells was scored as a positive well, and survival fractions were calculated.

[1] = tested on: ATM protein in AT153LA LCL (homozygous TGA A mutation); experiment: ATM-ELISA, intranuclear ATM protein in A-T LCLs; assay type: cell-based, human; conditions: 4 d treatment
Source text: To test whether the newly identified compounds could induce ATM protein in A-T cells with PTC mutations, we exposed A-T LCLs to each compound for 4 d before harvesting the cells. Western blotting of nuclear lysates was generally of insufficient sensitivity for monitoring RTC-induced ATM protein (Lai et al., 2004); therefore, we used an ATM-ELISA method to measure intranuclear ATM protein in cells (Butch et al., 2004, Clin. Chem. 50:2302-2308). Concentrations of individual RTCs used to treat AT153LA UM with a homozygous TGA A mutation were based on their cytotoxicity profile (data not shown). Cells treated with the highest RTC concentrations still had >70% viability as compared with untreated cells. […] The restored ATM protein was ≦5% of the wild-type LCLs. […]
FIGS. 3a-3c show the test results on RTCs induced intranuclear ATM protein and post-IR ATM-Ser1981 foci in A-T LCLs. […] Induced ATM protein was assessed by ATM-ELISA and ATM-Ser1981 IRIF. For IRIF test, cells were irradiated with 2 Gy and IRIFs were scored after 30 min. […]
Readthrough-induced full-length ATM protein in A-T cells was measured by ATM immunoassay (Butch et al., 2004). […] ATM concentrations of tested samples were calculated from the standard calibration curve using purified ATM protein (Chun et al., 2004, Biochem. Biophys. Res. Commun. 322:74-81).

[2] = tested on: plasmid-TAT51: ATM region 5 fragment with nonsense (PTC) mutation c.5623C→T (TGA C); experiment: PTT-ELISA readthrough assay, plasmid-TAT51 (TGA C)

| Compound | CSA survival fraction range (AT153LA cells (TGA A)) | restored ATM protein relative to wild-type LCLs [1] [%] | EC50 [2] [µM] |
| --- | --- | --- | --- |
| N=C1NC(=O)C(=Cc2ccc(-c3ccccc3[N+](=O)[O-])o2)S1 [RTC13, 2-imino-5-{[5-(2-nitrophenyl)-2-furyl]methylene}-1,3-thiazolidin-4-one] | 21-36% | ≤ 5 | < 10 |
| CC(C)(C)c1ccc(O)c(N=Cc2cccc([N+](=O)[O-])c2)c1 [RTC14, 4-tert-butyl-2-[(3-nitrobenzylidene)amino]pheno] |  | ≤ 5 | < 10 |
